The values that follow come from PMC6367206.

No constants are given. Whether binding was seen depends on the method and setting. Binding seen in cells or lysates may run through a third protein. Some results given as binding are weak or reduced against the parent protein; the word gives no strength.

The target in assay [1] is HA-tagged P53 (UniProt P04637). Nature of the assay: co-IP; cells lysed in RIPA buffer; lysate with primary antibody overnight at 4 C, protein A beads 4 h; Western blot; cells and antibodies not stated.
The target of assay [2] is GST-P53 fusion protein (UniProt P04637). Put plainly: pull-down; 5 ug purified GST-P53 incubated with 500 ug H23 whole cell lysate (50 mM Tris-Cl pH 7.5, 150 mM NaCl, 0.1% NP40) overnight at 4 C; captured on Glutathione Sepharose 4B; SDS-PAGE; only the target purified.

With “myc-tagged SYT7 (from UniProt O43581 1-403)”, the binding entry in assay [1] was “binds”.

Regarding “synaptotagmin-7 (SYT7) in H23 whole cell lysate (from UniProt O43581 1-403)”, in assay [2], the binding entry is given as “binds”.
